Assay results from the supplement of paper PMC10849652.
This is one part of the list.

The chains behind the UniProt entries cited, without tags or fusion partners. Where a name states a change or a piece, a line headed by the entry shows the natural chain unless it says otherwise.
UniProt Q9UMR2: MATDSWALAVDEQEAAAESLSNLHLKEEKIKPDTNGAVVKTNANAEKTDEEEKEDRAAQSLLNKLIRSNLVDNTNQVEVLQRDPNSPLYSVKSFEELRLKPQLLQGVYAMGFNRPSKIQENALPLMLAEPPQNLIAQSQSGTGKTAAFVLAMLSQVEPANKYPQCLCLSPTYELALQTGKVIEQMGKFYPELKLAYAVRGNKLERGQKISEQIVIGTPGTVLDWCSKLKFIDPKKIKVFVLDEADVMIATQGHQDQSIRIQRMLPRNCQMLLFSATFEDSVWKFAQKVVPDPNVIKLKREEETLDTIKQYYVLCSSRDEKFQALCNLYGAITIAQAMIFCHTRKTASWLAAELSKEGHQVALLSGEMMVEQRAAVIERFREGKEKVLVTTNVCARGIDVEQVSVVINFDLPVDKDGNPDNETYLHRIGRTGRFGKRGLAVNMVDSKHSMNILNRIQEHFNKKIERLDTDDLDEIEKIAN
UniProt O60231: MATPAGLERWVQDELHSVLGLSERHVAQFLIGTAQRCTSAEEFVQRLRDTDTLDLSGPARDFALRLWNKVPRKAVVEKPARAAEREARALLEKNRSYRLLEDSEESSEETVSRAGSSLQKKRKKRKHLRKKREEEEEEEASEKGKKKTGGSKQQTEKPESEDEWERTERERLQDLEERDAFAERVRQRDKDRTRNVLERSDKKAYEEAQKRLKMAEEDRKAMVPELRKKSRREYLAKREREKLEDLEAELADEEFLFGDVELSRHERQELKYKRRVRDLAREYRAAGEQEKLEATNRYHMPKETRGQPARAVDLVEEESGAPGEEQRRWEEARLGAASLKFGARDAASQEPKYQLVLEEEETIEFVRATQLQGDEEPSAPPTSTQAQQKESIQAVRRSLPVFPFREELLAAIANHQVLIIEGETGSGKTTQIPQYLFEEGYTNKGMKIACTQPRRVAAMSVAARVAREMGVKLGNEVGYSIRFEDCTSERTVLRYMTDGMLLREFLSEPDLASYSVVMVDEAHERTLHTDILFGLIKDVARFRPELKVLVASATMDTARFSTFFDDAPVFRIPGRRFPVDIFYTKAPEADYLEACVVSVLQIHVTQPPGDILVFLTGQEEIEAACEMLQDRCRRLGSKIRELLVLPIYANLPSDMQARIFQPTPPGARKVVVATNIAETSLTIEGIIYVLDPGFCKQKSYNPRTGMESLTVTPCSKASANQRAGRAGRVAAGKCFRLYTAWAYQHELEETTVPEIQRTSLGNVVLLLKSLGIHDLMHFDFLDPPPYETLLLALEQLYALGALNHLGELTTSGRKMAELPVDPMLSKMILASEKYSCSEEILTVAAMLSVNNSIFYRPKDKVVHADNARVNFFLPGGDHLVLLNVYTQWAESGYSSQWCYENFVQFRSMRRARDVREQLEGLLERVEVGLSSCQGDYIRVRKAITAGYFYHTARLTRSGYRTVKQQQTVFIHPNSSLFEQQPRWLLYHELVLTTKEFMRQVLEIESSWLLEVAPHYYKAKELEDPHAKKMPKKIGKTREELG
UniProt O75907: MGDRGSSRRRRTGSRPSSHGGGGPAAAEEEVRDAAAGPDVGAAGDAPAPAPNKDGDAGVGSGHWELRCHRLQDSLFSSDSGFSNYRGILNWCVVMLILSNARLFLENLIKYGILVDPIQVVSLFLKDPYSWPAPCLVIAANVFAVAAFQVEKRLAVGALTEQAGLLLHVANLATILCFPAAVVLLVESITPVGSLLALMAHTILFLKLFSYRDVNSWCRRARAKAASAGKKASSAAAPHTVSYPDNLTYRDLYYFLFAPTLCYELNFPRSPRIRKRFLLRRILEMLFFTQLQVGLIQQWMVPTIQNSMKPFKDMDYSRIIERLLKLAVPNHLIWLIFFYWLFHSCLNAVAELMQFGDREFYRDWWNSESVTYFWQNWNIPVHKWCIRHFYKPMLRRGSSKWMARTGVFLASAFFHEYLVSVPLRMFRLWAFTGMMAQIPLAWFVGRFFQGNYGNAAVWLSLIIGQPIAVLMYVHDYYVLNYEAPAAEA
UniProt Q5T1V6: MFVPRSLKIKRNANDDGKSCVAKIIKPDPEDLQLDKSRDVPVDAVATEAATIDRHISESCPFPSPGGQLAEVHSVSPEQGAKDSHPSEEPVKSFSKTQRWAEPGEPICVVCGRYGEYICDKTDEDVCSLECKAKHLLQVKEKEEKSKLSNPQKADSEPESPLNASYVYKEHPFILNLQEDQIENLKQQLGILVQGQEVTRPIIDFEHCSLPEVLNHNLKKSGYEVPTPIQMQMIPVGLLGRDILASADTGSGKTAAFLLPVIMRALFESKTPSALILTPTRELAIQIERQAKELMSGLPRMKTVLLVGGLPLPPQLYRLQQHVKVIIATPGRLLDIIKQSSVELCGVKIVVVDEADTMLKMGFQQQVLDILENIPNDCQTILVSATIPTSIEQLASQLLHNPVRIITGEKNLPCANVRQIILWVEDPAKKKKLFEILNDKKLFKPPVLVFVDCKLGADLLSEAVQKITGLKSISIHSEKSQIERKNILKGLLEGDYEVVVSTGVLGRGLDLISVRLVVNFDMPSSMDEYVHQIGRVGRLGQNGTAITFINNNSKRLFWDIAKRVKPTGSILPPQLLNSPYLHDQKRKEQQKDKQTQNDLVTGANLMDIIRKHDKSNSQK
UniProt Q13268: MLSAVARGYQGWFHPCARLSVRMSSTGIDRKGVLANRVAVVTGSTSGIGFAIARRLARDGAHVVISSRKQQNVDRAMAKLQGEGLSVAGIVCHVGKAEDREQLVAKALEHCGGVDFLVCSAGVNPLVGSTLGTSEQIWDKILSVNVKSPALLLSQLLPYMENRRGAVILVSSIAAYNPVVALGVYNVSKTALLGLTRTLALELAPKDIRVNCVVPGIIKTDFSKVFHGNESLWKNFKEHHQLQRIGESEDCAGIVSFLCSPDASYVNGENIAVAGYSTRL
UniProt Q6IAN0: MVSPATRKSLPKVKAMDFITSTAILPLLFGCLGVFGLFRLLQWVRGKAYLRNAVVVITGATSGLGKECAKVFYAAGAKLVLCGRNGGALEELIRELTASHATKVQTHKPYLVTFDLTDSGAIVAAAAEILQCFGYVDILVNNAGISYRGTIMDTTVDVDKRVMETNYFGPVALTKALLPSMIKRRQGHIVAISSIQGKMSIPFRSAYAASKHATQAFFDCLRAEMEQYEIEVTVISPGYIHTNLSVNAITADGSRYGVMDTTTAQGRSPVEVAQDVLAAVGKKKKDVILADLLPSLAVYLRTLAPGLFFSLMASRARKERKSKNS

Assays:
Experiment in all cases: log2 fold change, soluble protein after heating vs DMSO (PISA); higher = thermal stabilisation; K562 cells, 10 uM, 30 min; active = over 0.2 and 3.5 SD of the protein, either way, in both replicates (recomputed)
[1] = compound: CC1=C(C=C(C=C1)NC(=O)C2=CC(=CC=C2)C(C)(C)C#N)NC3=CC4=C(C=C3)N=CN(C4=O)C
Method in brief: (§1)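 K562 cells (2×10^6 cells/mL) were treated with 10 μM compound for 30 min, and aliquots were heated for 3 min over 48°C-58°C. Pooled aliquots were extracted in PBS with 0.5% NP-40 at 4°C, and the supernatant after 21,000xg for 90 min was measured by TMTpro 16plex LC-MS/MS with channel sums equalised. Reported thermal stability, relative to control samples and from duplicates, is a log2 fold change.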

[2] = compound: CC1=C(C=C(C=C1)NC(=O)C2=CC(=CC=C2)N(C)C)NC(=O)C3=CC=C(C=C3)O
Method in brief: as §1

[3] = compound: CC1=CC=C(C=C1)SC2=C3C=C(SC3=CN=C2)C(=O)N
Method in brief: as §1

[4] = compound: CC1=NC(=CC=C1)C2=C(N=C(N2)C(C)(C)C)C3=CC4=NC=CN=C4C=C3
Method in brief: as §1

Nexturastat A = compound: CCCCN(Cc1ccc(C(=O)NO)cc1)C(=O)Nc1ccccc1 [Nexturastat A]
Method in brief: as §1

vemurafenib = compound: CCCS(=O)(=O)Nc1ccc(F)c(C(=O)c2c[nH]c3ncc(-c4ccc(Cl)cc4)cc23)c1F [vemurafenib]
Method in brief: as §1

[5] = compound: CCCS(=O)(=O)Nc1ccc(F)c(C(=O)c2c[nH]c3ncc(Cl)cc23)c1F
Method in brief: as §1

[6] = compound: CCCc1cc(C)[nH]c(=O)c1CNC(=O)c1cc(-c2ccnc(N3CCN(C)CC3)c2)cc2c1cnn2C(C)C
Method in brief: as §1

givinostat = compound: CCN(CC)Cc1ccc2cc(COC(=O)Nc3ccc(C(=O)NO)cc3)ccc2c1 [givinostat]
Method in brief: as §1

barasertib = compound: CCN(CCCOc1ccc2c(Nc3cc(CC(=O)Nc4cccc(F)c4)[nH]n3)ncnc2c1)CCOP(=O)(O)O [barasertib]
Method in brief: as §1

[7] = compound: CC[C@@H]1C(=O)N(C)c2cnc(Nc3ccc(C(=O)NC4CCN(C)CC4)cc3OC)nc2N1C1CCCC1
Method in brief: as §1

volasertib = compound: CC[C@@H]1C(=O)N(C)c2cnc(Nc3ccc(C(=O)N[C@H]4CC[C@H](N5CCN(CC6CC6)CC5)CC4)cc3OC)nc2N1C(C)C [volasertib]
Method in brief: as §1

[8] = compound: CC[C@H](C)N1C=C(C2=C(C=C(C=C21)C3=CN=C(C=C3)N4CCNCC4)C(=O)NCC5=C(C=C(NC5=O)C)C)C
Method in brief: as §1

epoxomicin = compound: CC[C@H](C)[C@@H](C(=O)N[C@@H]([C@@H](C)O)C(=O)N[C@@H](CC(C)C)C(=O)[C@]1(CO1)C)NC(=O)[C@H]([C@@H](C)CC)N(C)C(=O)C [epoxomicin]
Method in brief: as §1

[9] = compound: CCn1c(C(=O)N(C2CC2)C2CC2)cc2c3c(ncn3C)c(Nc3cc(C)n(C)n3)nc21
Method in brief: as §1

[10] = compound: CCn1cc(-c2ccnc3[nH]c(-c4cccc(CN(C)C)c4)cc23)c(-c2ccc(NC(=O)N(C)C)cc2)n1
Method in brief: as §1

[11] = compound: CN(C)CC(=O)Nc1ccc2[nH]c(=O)c3ccccc3c2c1
Method in brief: as §1

rosiglitazone = compound: CN(CCOC1=CC=C(C=C1)C[C@H]2C(=O)NC(=O)S2)C3=CC=CC=N3 (racemic) [rosiglitazone]
Method in brief: as §1

[12] = compound: CN1C2=C(C3=C1C(=O)N(N=C3)CC4=CC(=CC=C4)N)SC(=C2)S(=O)C
Method in brief: as §1

[13] = compound: CN1CCC(CNc2ccc3ncc(-c4cccc(OC(F)(F)F)c4)n3n2)CC1
Method in brief: as §1

DDX19B (UniProt Q9UMR2)
log2 fold change [1]: inactive: -0.053
log2 fold change [2]: inactive: -0.039
log2 fold change [3]: inactive: 0.046
log2 fold change [4]: inactive: 0.052
log2 fold change (Nexturastat A): inactive: -0.019
log2 fold change (vemurafenib): inactive: 0.037
log2 fold change [5]: inactive: 0.067
log2 fold change [6]: inactive: 0.041
log2 fold change (givinostat): inactive: 0.034
log2 fold change (barasertib): inactive: 0.011
log2 fold change [7]: inactive: -0.083
log2 fold change (volasertib): inactive: -0.19
log2 fold change [8]: inactive: 0.06
log2 fold change (epoxomicin): inactive: 0.024
log2 fold change [9]: inactive: -0.006
log2 fold change [10]: inactive: -0.023
log2 fold change [11]: inactive: 0.022
log2 fold change (rosiglitazone): inactive: 0.025
log2 fold change [12]: inactive: -0.046
log2 fold change [13]: inactive: -0.097

DHX16 (UniProt O60231)
log2 fold change [1]: inactive: -0.014
log2 fold change [2]: inactive: -0.018
log2 fold change [3]: inactive: 0.024
log2 fold change [4]: inactive: 0.036
log2 fold change (Nexturastat A): inactive: -0.002
log2 fold change (vemurafenib): inactive: 0.017
log2 fold change [5]: inactive: 0.059
log2 fold change [6]: inactive: -0.011
log2 fold change (givinostat): inactive: 0.017
log2 fold change (barasertib): inactive: 0.032
log2 fold change [7]: inactive: -0.032
log2 fold change (volasertib): inactive: -0.158
log2 fold change [8]: inactive: 0.032
log2 fold change (epoxomicin): inactive: 0.051
log2 fold change [10]: inactive: -0.054
log2 fold change [11]: inactive: -0.025
log2 fold change [12]: inactive: -0.033
log2 fold change [13]: inactive: -0.012

DGAT1 (UniProt O75907)
log2 fold change [1]: inactive: 0.053
log2 fold change [2]: inactive: -0.06
log2 fold change [3]: inactive: 0.011
log2 fold change [4]: inactive: -0.017
log2 fold change (Nexturastat A): inactive: 0.001
log2 fold change (vemurafenib): inactive: 0.057
log2 fold change [5]: inactive: 0.13
log2 fold change [6]: inactive: -0.071
log2 fold change (givinostat): inactive: 0.018
log2 fold change (barasertib): inactive: -0.078
log2 fold change [7]: inactive: 0.043
log2 fold change (volasertib): inactive: -0.023
log2 fold change [8]: inactive: 0.022
log2 fold change (epoxomicin): inactive: -0.056
log2 fold change [9]: inactive: 0.084
log2 fold change [10]: inactive: -0.098
log2 fold change [11]: inactive: -0.01
log2 fold change (rosiglitazone): inactive: 0.135
log2 fold change [12]: inactive: 0.015
log2 fold change [13]: inactive: 0.004

DNAH5 (UniProt Q8TE73)
log2 fold change [1]: inactive: -0.047
log2 fold change [2]: inactive: 0
log2 fold change [3]: active: 0.431
log2 fold change [4]: inactive: -0.036
log2 fold change (Nexturastat A): inactive: -0.021
log2 fold change (vemurafenib): inactive: -0.077
log2 fold change [5]: inactive: 0.014
log2 fold change [6]: inactive: -0.044
log2 fold change (givinostat): inactive: 0.012
log2 fold change (barasertib): inactive: 0.03
log2 fold change [7]: inactive: 0.042
log2 fold change (volasertib): inactive: 0.01
log2 fold change [8]: inactive: -0.079
log2 fold change (epoxomicin): inactive: -0.052
log2 fold change [10]: inactive: -0.009
log2 fold change [11]: inactive: -0.031
log2 fold change [12]: inactive: 0.029
log2 fold change [13]: inactive: 0.03

DDX59 (UniProt Q5T1V6)
log2 fold change [1]: inactive: -0.03
log2 fold change [2]: inactive: 0.004
log2 fold change [3]: inactive: 0.044
log2 fold change [4]: inactive: -0.039
log2 fold change (Nexturastat A): inactive: -0.092
log2 fold change (vemurafenib): inactive: 0.02
log2 fold change [5]: inactive: 0.068
log2 fold change [6]: inactive: 0.02
log2 fold change (givinostat): inactive: 0.059
log2 fold change (barasertib): inactive: -0.069
log2 fold change [7]: inactive: -0.125
log2 fold change (volasertib): inactive: -0.046
log2 fold change [8]: inactive: 0.029
log2 fold change (epoxomicin): inactive: 0.104
log2 fold change [9]: inactive: -0.019
log2 fold change [10]: inactive: -0.065
log2 fold change [11]: inactive: 0.023
log2 fold change (rosiglitazone): inactive: 0
log2 fold change [12]: inactive: -0.049
log2 fold change [13]: inactive: 0.014

DNAJA1 (UniProt P31689)
log2 fold change [1]: inactive: -0.014
log2 fold change [2]: inactive: -0.077
log2 fold change [3]: inactive: -0.007
log2 fold change [4]: inactive: -0.005
log2 fold change (Nexturastat A): inactive: 0.005
log2 fold change (vemurafenib): inactive: 0.013
log2 fold change [5]: inactive: 0.006
log2 fold change [6]: inactive: -0.018
log2 fold change (givinostat): inactive: 0.021
log2 fold change (barasertib): inactive: 0.002
log2 fold change [7]: inactive: 0.002
log2 fold change (volasertib): inactive: -0.116
log2 fold change [8]: inactive: -0.018
log2 fold change (epoxomicin): inactive: 0.015
log2 fold change [9]: inactive: -0.009
log2 fold change [10]: inactive: -0.016
log2 fold change [11]: inactive: -0.027
log2 fold change (rosiglitazone): inactive: 0.045
log2 fold change [12]: inactive: -0.012
log2 fold change [13]: inactive: -0.036

DHRS2 (UniProt Q13268)
log2 fold change [1]: inactive: -0.031
log2 fold change [2]: inactive: -0.069
log2 fold change [3]: inactive: -0.037
log2 fold change [4]: inactive: -0.027
log2 fold change (Nexturastat A): inactive: -0.088
log2 fold change (vemurafenib): inactive: 0.009
log2 fold change [5]: inactive: -0.029
log2 fold change [6]: inactive: -0.01
log2 fold change (givinostat): inactive: -0.088
log2 fold change (barasertib): inactive: 0.022
log2 fold change [7]: inactive: 0.127
log2 fold change (volasertib): inactive: 0.019
log2 fold change [8]: inactive: 0.039
log2 fold change (epoxomicin): inactive: -0.031
log2 fold change [9]: inactive: -0.008
log2 fold change [10]: inactive: -0.033
log2 fold change [11]: inactive: -0.008
log2 fold change (rosiglitazone): inactive: -0.06
log2 fold change [12]: inactive: -0.047
log2 fold change [13]: inactive: -0.039

DHRS7B (UniProt Q6IAN0)
log2 fold change [1]: inactive: -0.008
log2 fold change [2]: inactive: -0.066
log2 fold change [3]: inactive: -0.049
log2 fold change [4]: inactive: -0.001
log2 fold change (Nexturastat A): inactive: 0.003
log2 fold change (vemurafenib): inactive: 0.066
log2 fold change [5]: inactive: 0.06
log2 fold change [6]: inactive: 0.04
log2 fold change (givinostat): inactive: -0.029
log2 fold change (barasertib): inactive: -0.004
log2 fold change [7]: inactive: -0.079
log2 fold change (volasertib): inactive: -0.147
log2 fold change [8]: inactive: -0.043
log2 fold change (epoxomicin): inactive: -0.106
log2 fold change [10]: inactive: 0.059
log2 fold change [11]: inactive: -0.002
log2 fold change [12]: inactive: -0.122
log2 fold change [13]: active: 0.538
